{"source": "patent US20060099712A1", "about": "“Correlation of anti-cancer activity of dyes with redox potentials” (Eastman Kodak Company, priority 2004, published 2006)", "tested_on": "CX-1 Human Colon Carcinoma", "test": "Clonogenic dye screening assay, CX-1 cells (IC50)", "format": "cell-based", "design": "unit not given here", "settings": "Table XVII, benzotellurazole derivatives", "from_the_text": "CX-1 is a cancerous human colon adenocarcinoma cell line. CV-1 is a non-cancerous control, which is a kidney epithelial cell line from an African green monkey. IC50 is the dye concentration at which 50% of the cells are killed. Selectivity or kill ratio is defined as the ratio of […] at IC50 for both CX-1 and CV-1. A ratio with a high number indicates a high selectivity.\nThe dyes were screened in two cell lines. CX-1 is a human colon adenocarcinoma cell line. CV-1 is a kidney epithelial cell line from an African green monkey. CV-1 was used as a reference because no normal human epithelial cell line is available for clonogenic assay.\nIn the initial screen, dyes were examined at six different concentrations to generate a dose response curve. An IC50 value, the concentration at which 50% of the cells are killed, was then calculated. Initially, a dye concentration of 1.0 μg/mL was the highest examined for the CX-1 cell line and 0.005 μg/mL was the lower limit. The corresponding limits on the CV-1 cell line were […].\nThe screening procedure used a response curve that was determined from eight dye concentrations. […]\nCompounds are screened via an in vitro assay. […] IC50's are determined and drugs evaluated based on their selectivity and toxicity. […]", "note": "For at least one compound, name, drawing or mass did not settle the structure.", "data": [{"smiles": "CN1/C(=C/C=C/c2[te]c3ccc(O)cc3[n+]2C)[Te]c2ccc(O)cc21", "note": "[R=M, X=Te, Z1=5-OH, R2=H, Z2=5-OH]", "values": [{"measurement": "CX", "value": ">0.42"}]}]}
